The supplement of paper PMC6411743
± gives the standard deviation of the averaged measurements. The list shows a part of the results, in another mix than the full data.

Amino acid sequences for entries named in this document (tags omitted). A change or cut given only in a name is not applied to a line headed by its entry.
UniProt P04075: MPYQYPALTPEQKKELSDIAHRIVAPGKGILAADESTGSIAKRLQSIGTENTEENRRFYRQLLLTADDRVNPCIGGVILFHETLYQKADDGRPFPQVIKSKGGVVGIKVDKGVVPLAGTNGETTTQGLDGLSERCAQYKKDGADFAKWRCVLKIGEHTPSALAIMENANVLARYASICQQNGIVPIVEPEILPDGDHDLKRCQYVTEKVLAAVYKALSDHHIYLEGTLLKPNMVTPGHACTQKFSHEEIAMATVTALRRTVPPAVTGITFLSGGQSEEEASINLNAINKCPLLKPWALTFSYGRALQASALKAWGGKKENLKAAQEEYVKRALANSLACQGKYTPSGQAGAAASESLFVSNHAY
UniProt P16401, whole entry: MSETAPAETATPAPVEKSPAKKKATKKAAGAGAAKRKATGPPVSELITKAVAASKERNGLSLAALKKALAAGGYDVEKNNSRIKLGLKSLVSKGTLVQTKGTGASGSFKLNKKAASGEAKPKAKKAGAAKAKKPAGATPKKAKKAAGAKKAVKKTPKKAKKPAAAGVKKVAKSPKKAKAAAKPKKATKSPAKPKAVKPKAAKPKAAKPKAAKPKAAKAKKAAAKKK
UniProt P02786, whole entry, looked up: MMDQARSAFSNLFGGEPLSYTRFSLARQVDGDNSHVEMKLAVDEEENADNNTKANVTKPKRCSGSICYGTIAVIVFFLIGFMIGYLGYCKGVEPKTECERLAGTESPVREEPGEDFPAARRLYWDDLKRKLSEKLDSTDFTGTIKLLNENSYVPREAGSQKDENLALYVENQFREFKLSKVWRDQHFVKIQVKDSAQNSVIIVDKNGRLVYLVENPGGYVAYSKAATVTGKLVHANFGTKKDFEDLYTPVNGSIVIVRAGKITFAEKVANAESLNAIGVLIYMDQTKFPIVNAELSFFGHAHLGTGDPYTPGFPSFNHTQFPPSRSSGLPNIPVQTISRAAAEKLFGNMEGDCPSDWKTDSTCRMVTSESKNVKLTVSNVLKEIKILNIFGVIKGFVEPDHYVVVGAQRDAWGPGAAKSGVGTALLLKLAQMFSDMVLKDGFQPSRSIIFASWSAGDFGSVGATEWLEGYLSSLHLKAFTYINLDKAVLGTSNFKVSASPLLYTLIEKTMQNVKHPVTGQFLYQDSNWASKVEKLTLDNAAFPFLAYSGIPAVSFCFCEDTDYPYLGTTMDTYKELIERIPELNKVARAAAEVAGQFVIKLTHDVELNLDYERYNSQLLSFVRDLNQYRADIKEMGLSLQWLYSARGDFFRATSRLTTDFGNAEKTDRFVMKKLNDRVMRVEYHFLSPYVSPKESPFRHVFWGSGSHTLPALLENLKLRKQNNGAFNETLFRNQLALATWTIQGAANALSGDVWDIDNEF
UniProt P15882: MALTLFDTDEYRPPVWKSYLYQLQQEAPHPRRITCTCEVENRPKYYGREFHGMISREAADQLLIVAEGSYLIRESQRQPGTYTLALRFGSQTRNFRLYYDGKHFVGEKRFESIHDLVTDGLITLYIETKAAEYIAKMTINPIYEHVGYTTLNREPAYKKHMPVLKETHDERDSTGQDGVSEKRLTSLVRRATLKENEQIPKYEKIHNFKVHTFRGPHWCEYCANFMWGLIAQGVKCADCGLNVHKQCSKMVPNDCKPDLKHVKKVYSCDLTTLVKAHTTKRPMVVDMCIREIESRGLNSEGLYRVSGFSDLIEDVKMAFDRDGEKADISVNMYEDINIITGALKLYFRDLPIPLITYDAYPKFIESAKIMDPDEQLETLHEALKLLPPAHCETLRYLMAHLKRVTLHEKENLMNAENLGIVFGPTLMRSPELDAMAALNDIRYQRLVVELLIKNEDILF
UniProt P11169: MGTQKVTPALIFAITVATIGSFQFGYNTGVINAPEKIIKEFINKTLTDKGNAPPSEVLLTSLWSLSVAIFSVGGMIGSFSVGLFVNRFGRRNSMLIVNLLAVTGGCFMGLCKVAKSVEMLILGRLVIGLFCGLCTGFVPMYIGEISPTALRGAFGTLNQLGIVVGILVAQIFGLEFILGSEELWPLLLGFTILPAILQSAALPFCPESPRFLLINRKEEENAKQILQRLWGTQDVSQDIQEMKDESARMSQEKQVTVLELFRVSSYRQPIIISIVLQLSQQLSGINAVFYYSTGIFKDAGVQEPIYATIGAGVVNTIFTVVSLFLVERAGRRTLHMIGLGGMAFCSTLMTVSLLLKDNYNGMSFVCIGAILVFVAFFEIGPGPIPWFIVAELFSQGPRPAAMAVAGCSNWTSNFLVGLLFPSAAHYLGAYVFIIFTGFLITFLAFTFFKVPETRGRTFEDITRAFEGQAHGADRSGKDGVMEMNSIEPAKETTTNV
UniProt P15812: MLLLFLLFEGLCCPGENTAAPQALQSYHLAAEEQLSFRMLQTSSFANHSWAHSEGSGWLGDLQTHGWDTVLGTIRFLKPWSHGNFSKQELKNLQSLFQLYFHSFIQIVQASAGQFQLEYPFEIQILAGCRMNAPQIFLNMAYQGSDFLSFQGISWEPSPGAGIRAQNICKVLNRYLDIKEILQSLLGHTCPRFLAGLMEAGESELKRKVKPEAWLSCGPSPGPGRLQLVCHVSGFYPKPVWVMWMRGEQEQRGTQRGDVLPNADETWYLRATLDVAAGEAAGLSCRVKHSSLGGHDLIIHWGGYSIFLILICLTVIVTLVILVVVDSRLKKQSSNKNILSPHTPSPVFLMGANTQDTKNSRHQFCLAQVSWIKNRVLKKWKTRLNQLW
UniProt P09914: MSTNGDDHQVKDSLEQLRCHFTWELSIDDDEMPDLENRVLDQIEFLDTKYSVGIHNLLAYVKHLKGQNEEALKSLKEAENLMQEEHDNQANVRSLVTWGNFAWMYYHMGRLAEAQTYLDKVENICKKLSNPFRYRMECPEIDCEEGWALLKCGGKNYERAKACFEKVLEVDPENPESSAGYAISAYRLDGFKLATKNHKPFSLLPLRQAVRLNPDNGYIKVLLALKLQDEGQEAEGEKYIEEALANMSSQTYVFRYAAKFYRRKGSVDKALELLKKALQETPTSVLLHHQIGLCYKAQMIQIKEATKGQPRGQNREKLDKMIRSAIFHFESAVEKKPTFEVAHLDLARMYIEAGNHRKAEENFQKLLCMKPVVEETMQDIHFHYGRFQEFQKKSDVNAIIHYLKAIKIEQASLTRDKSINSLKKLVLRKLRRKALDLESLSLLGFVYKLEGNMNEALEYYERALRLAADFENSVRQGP
UniProt P06239: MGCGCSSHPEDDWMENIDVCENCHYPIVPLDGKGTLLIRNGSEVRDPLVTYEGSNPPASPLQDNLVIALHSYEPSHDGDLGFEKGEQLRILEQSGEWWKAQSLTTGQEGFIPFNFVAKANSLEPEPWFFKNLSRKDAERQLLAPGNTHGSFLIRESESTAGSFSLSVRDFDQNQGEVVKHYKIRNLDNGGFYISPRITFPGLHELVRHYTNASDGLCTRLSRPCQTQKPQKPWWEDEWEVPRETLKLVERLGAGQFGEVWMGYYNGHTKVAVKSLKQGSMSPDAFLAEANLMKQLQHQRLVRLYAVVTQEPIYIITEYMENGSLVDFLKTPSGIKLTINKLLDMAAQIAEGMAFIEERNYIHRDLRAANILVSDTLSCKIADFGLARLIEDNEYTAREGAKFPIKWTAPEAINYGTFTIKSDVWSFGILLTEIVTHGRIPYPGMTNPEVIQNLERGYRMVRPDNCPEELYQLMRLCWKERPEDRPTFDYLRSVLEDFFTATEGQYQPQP
UniProt P09669, whole entry: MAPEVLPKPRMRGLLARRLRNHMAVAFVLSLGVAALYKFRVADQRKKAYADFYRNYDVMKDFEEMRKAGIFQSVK
UniProt P10636, whole entry: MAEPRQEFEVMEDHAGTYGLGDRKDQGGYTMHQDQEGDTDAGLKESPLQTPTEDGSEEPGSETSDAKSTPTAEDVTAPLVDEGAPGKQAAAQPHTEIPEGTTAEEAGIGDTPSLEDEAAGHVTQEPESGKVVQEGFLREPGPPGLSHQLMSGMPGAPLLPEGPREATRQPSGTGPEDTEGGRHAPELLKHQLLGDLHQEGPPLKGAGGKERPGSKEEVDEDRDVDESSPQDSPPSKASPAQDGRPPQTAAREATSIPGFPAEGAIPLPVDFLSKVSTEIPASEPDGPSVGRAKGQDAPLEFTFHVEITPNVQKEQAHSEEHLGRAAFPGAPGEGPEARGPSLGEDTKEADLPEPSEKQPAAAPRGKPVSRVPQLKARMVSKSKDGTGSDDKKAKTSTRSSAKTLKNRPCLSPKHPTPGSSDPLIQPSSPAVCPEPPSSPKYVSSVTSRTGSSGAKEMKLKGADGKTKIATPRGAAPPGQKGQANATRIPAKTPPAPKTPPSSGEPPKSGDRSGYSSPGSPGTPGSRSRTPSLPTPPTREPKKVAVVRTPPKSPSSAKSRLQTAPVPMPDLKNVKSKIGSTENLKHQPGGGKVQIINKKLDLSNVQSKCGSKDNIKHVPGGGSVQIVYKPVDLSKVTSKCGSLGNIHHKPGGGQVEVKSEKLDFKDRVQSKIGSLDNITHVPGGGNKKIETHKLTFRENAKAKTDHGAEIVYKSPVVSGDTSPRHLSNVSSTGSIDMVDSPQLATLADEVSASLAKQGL
UniProt P07311: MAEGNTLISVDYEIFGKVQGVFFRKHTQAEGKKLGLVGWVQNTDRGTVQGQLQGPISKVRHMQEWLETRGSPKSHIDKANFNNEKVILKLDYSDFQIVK
UniProt P16083: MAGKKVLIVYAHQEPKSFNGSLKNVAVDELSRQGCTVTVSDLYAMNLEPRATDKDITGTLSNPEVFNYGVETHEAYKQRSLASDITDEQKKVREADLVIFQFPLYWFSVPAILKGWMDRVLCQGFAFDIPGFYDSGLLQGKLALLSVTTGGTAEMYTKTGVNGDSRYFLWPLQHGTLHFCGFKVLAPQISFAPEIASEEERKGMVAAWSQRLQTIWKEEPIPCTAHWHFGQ
UniProt P16402, whole entry: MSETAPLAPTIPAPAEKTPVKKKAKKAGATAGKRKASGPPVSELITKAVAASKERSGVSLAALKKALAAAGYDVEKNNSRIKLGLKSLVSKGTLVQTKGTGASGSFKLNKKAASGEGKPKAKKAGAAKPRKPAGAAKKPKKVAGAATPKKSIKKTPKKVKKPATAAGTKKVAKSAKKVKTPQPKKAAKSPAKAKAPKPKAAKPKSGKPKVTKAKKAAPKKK
UniProt P16383: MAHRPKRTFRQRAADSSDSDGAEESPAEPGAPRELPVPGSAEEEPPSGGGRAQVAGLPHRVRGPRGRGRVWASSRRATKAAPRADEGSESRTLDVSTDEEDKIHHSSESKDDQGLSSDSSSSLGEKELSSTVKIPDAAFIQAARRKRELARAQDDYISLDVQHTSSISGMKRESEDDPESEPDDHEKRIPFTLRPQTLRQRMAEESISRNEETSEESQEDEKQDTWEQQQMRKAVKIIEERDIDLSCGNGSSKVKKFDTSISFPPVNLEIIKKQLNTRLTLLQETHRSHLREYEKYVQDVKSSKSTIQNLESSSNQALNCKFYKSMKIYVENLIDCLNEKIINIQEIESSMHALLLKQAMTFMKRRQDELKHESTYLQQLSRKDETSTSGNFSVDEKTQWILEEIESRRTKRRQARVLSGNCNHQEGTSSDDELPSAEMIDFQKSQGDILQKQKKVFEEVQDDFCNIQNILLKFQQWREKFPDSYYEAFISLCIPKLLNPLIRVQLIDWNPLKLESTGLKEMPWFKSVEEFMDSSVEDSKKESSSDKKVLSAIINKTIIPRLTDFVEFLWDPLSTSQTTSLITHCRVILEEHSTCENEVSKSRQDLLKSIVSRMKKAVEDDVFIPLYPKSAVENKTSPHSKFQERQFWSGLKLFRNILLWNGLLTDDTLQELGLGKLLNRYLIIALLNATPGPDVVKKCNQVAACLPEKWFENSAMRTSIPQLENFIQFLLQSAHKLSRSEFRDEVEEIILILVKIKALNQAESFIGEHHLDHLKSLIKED
UniProt P13073, whole entry: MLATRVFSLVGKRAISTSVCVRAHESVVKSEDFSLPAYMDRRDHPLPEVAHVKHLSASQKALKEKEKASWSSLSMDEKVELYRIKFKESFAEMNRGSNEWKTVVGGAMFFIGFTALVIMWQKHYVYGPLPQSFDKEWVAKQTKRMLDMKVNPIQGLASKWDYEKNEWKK
UniProt P08567: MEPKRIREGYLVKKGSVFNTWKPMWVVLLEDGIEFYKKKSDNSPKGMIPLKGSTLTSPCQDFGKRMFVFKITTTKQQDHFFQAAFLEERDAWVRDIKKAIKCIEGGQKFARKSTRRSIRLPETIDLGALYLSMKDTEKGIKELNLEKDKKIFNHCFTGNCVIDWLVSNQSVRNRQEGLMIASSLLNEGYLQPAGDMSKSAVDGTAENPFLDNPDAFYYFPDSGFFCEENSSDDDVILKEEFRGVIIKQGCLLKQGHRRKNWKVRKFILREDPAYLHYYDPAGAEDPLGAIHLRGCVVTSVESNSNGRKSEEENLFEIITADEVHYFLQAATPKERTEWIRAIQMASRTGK
UniProt P12074, whole entry: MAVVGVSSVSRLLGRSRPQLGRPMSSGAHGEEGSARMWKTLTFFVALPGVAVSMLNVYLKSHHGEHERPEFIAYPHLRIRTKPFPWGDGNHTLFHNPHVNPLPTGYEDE

Compound: Nc1ncnc2c1ncn2[C@@H]1O[C@H](COP(=O)(O)OP(=O)(O)OP(=O)(O)O)[C@@H](O)[C@H]1O [adenosine triphosphate]
Test: NP40-soluble protein abundance relative to vehicle (solubility fold change) (ratio); higher = more soluble protein in presence of ATP
Procedure, shortened: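 Data come from three independent experiments in which Dounce-homogenised Jurkat crude lysate was treated at eight concentrations from 0.1 to 10 mM. Treatment ran 10 min at room temperature and then 3 min at 37 °C, after which 0.8% NP40 and benzonase were added for 60 min at 4 °C before ultracentrifugation. The supernatant underwent TMT labelling and LC-MS/MS, and vsn-normalised intensities were expressed as fold change against the detergent-processed vehicle in each replicate.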

Target	NP40-soluble protein abundance (concentration: 1mM)	NP40-soluble protein abundance (concentration: 2mM)	NP40-soluble protein abundance (concentration: 4mM)	NP40-soluble protein abundance (concentration: 6mM)	NP40-soluble protein abundance (concentration: 8mM)	NP40-soluble protein abundance (concentration: 10mM)
UniProt P07437	1.03 ± 0.076	0.923 ± 0.03	0.956 ± 0.052	0.973 ± 0.13	0.95 ± 0.056	0.946 ± 0.07
HSP90B1 (UniProt P14625)	0.941 ± 0.015	0.946 ± 0.03	0.91 ± 0.019	0.933 ± 0.049	0.909 ± 0.04	0.927 ± 0.049
UniProt P04075 and related entries	0.994 ± 0.061	0.982 ± 0.018	0.946 ± 0.036	1.02 ± 0.043	0.942 ± 0.043	0.943 ± 0.038
UniProt P09564	1.03 ± 0.082	1.03 ± 0.043	1.07 ± 0.039	1.06 ± 0.099	1.02 ± 0.019	0.981 ± 0.049
HIST1H1B (UniProt P16401)	1.14 ± 0.17	1.07 ± 0.095	1.15 ± 0.11	1.33 ± 0.11	1.29 ± 0.029	1.53 ± 0.16
TFRC (UniProt P02786)	0.94 ± 0.025	0.949 ± 0.024	0.907 ± 0.018	0.917 ± 0.034	0.902 ± 0.024	0.928 ± 0.032
UniProt P15882 and related entries	1.04 ± 0.025	1.027 ± 0.0095	0.99 ± 0.045	0.967 ± 0.022	1.041 ± 0.0092	1.02 ± 0.06
SLC2A3 (UniProt P11169)	0.994 ± 0.026	0.9597 ± 0.0024	0.972 ± 0.04	0.995 ± 0.029	1 ± 0.051	0.977 ± 0.02
IGF2R (UniProt P11717)	0.949 ± 0.047	0.956 ± 0.039	0.926 ± 0.025	0.954 ± 0.064	0.902 ± 0.043	0.933 ± 0.0099
CAPN1 (UniProt P07384)	1.05 ± 0.11	1.03 ± 0.082	1 ± 0.088	0.955 ± 0.12	1.04 ± 0.08	1 ± 0.065
UniProt P15812 and related entries	0.901 ± 0.061	0.983 ± 0.12	0.931 ± 0.14	0.875 ± 0.066	0.885 ± 0.13	0.933 ± 0.11
UniProt P09914 and related entries	1.08 ± 0.078	1.11 ± 0.12	1.03 ± 0.18	1.07 ± 0.2	1.06 ± 0.17	1.12 ± 0.069
UniProt P06239 and related entries	1.06 ± 0.022	1.01 ± 0.035	1.03 ± 0.021	0.9593 ± 0.008	1.04 ± 0.017	1.03 ± 0.021
COX6C (UniProt P09669)	0.932 ± 0.087	0.822 ± 0.09	0.831 ± 0.12	0.808 ± 0.11	0.899 ± 0.015	0.748 ± 0.17
PARP1 (UniProt P09874)	1.09 ± 0.06	1.13 ± 0.041	1.21 ± 0.065	1.34 ± 0.082	1.47 ± 0.094	1.54 ± 0.052
UniProt P10636-6|P10636-7	0.937 ± 0.083	0.956 ± 0.023	0.936 ± 0.053	0.961 ± 0.056	0.8917 ± 0.0047	0.855 ± 0.089
ACYP1 (UniProt P07311)	0.916 ± 0.053	0.928 ± 0.018	0.884 ± 0.036	0.923 ± 0.033	0.873 ± 0.02	0.88 ± 0.049
UniProt P16083 and related entries	0.957 ± 0.021	0.991 ± 0.029	0.977 ± 0.015	0.96 ± 0.043	0.97 ± 0.016	0.965 ± 0.026
RPS2 (UniProt P15880)	0.877 ± 0.047	0.832 ± 0.081	0.78 ± 0.098	0.752 ± 0.079	0.718 ± 0.1	0.772 ± 0.097
QDPR (UniProt P09417)	0.961 ± 0.054	1 ± 0.042	0.9907 ± 0.0088	0.945 ± 0.058	0.965 ± 0.028	0.994 ± 0.035
AKR1B1 (UniProt P15121)	1.01 ± 0.12	0.971 ± 0.11	0.918 ± 0.094	0.907 ± 0.17	0.959 ± 0.086	0.931 ± 0.093
UniProt P14324-2	0.934 ± 0.056	0.957 ± 0.093	0.902 ± 0.072	0.909 ± 0.12	0.904 ± 0.059	0.942 ± 0.096
HIST1H1D (UniProt P16402)	1.07 ± 0.18	1.02 ± 0.048	1.1 ± 0.074	1.17 ± 0.083	1.22 ± 0.099	1.4 ± 0.19
UniProt P16383	0.989 ± 0.05	1.03 ± 0.026	1.05 ± 0.058	1.07 ± 0.065	0.985 ± 0.044	1.06 ± 0.028
UniProt P14859-5|P14859-6	0.829 ± 0.08	0.859 ± 0.03	0.874 ± 0.022	0.96 ± 0.058	0.892 ± 0.034	0.879 ± 0.056
COX4I1 (UniProt P13073)	0.972 ± 0.04	0.955 ± 0.021	0.93 ± 0.011	0.95 ± 0.017	0.935 ± 0.027	0.891 ± 0.06
PLEK (UniProt P08567)	1.05 ± 0.041	1.05 ± 0.049	0.94 ± 0.036	0.991 ± 0.12	1.04 ± 0.075	1.05 ± 0.058
COX6A1 (UniProt P12074)	0.973 ± 0.16	0.956 ± 0.16	0.964 ± 0.12	0.976 ± 0.13	0.998 ± 0.06	0.879 ± 0.12
UniProt P04234	0.884 ± 0.08	0.97 ± 0.033	0.981 ± 0.048	0.934 ± 0.021	0.963 ± 0.049	0.933 ± 0.051
UniProt P06126	1.01 ± 0.013	1.03 ± 0.059	0.988 ± 0.034	0.963 ± 0.041	0.942 ± 0.03	0.936 ± 0.055

Copied from the list:
Entry of AKR1B1 (UniProt P15121) under NP40-soluble protein abundance (concentration: 4mM): 0.918 ± 0.094
Entry of UniProt P07437 under NP40-soluble protein abundance (concentration: 1mM): 1.03 ± 0.076
